# The list shows a part of the results. Further columns of the screen follow, without active or inactive calls. Most of these compounds were active or inconclusive in the main read-out, so they are no random draw. Words in brackets tell the shape of the fitted curve; partial curves, single points and poor fits give uncertain potencies.
# Test: IkB Signaling
# Conditions: ABC-DLBCL IkBa-CBG/CBR dual luciferase ratio (green luciferase fused to IkBa over red control in OCI-Ly3 lymphoma cells), 4 h
# Outline: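 In this assay, an IκBα–CBG68 fusion accumulates when IKK-driven degradation is blocked; native CBR normalizes for cell number. OCI-Ly3 cells were treated 4 h with compound and doxycycline, then green and red light read after Chroma-Glo addition.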
# [1] = measured here: control luc red channel unless noted
# [2] = measured here: IkB-luc green channel
# [3] = measured here: control luc red channel
structure (smiles),measurement,setting,value
CC(=O)N1CCc2c(sc3c2c(=O)n(-c2cc(Cl)ccc2C)c(=O)n3Cc2ccccc2F)C1,AC50,[1],"39.8 µM [falling, single point]"
COC(=O)c1cc(Cl)ccc1NC(=O)CSc1ncc(S(=O)(=O)c2ccc(Br)cc2)c(=O)[nH]1,AC50,[1],"5.01 µM [falling, full curve]"
COc1ccc(C(=O)COC(=O)CCCC(=O)Nc2cc(C(F)(F)F)ccc2Cl)cc1,AC50,[1],"31.6 µM [falling, single point]"
O=C(Nc1nc2n(n1)C(c1ccc(Cl)cc1)CC(c1ccc(Cl)cc1)N2)c1ccco1 (centres undefined),AC50,[1],"20 µM [falling, partial curve]"
CCCCOC(=O)c1ccc(NC(=O)c2cc(-c3cccs3)on2)cc1,AC50,[1],"0.126 µM [falling, full curve]"
COc1ccc(-n2c(Cc3cccn3C)nnc2SCC(=O)N2CCCc3ccccc32)cc1,AC50,[1],"10 µM [falling, partial curve]"
CCOc1ccc(OCC)c(NC(=O)CN2CCC(NC(=O)c3cccc(F)c3)CC2)c1,AC50,[1],"31.6 µM [falling, partial curve]"
Cc1ccc(Nc2c(-c3ccc(C)s3)nc3ncccn23)cc1,AC50,[1],"3.98 µM [falling, partial curve]"
O=C(NCCc1ccc(Cl)cc1)c1cc(-c2ccc(Cl)cc2)n[nH]1,AC50,[1],"10 µM [falling, partial curve]"
COc1ccccc1CNC(=O)c1ccc(-c2nc(CS(=O)(=O)c3ccc(C)cc3)c(C)o2)cc1,AC50,[1],"15.8 µM [falling, partial curve]"
Cc1cccc(C(=O)Nc2sc3c(c2C(=O)NC(C)C)CCCC3)c1,AC50,[1],"10 µM [falling, partial curve]"
Cc1ccccc1Cn1cc(/C=N/n2cnnc2)c2ccccc21,AC50,[1],"15.8 µM [falling, partial curve]"
CCOC(=O)c1ccc(NC(=O)CSc2nnc(-c3ccncc3)n2C)cc1,AC50,[2],"39.8 µM [rising, single point]"
same,AC50,[3],"39.8 µM [rising, single point]"
CCCCN1CCc2c([nH]c3ccccc23)C1=O,AC50,[1],"20 µM [falling, single point]"
CC(C)(C)OC(=O)N1CCC(c2c(C(=O)N3CCCCC3)cnn2-c2cccc(F)c2)CC1,AC50,[1],"12.6 µM [falling, partial curve]"
COc1cc(OC)c(NC(=O)c2noc3c2CSc2ccccc2-3)cc1Cl,AC50,[1],"25.1 µM [falling, single point]"
CCCCn1c(SCC(=O)Nc2ccc(OCC)cc2)nc2ccsc2c1=O,AC50,[1],"0.158 µM [falling, partial curve, poor fit]"
CCc1ccccc1NC(=O)[C@@H](c1ccccc1)N1Cc2ccccc2C1=O,AC50,[1],"39.8 µM [falling, single point]"
CCOc1ccc(-c2oc3ccc(C)cc3c(=O)c2O)cc1,AC50,[1],"2.51 µM [rising, full curve, poor fit]"
c1csc(Cn2nnnc2CN2CCN(c3nc4ccccc4s3)CC2)c1,AC50,[1],"25.1 µM [falling, partial curve]"
O=C(Nc1ccc(F)cc1)C1CCN(S(=O)(=O)c2ccc3c(c2)CCCN3C(=O)C2CCC2)CC1,AC50,[1],"39.8 µM [falling, single point]"
COC(=O)c1c(NC(=O)C2CC2)sc2c1CCCC2,AC50,[1],"3.98 µM [rising, single point]"
CN1CCc2cc(Cl)c(O)cc2[C@@H](c2ccccc2)C1,AC50,[1],"39.8 µM [falling, partial curve]"
CCOC(=O)c1cnc2ccc(C)cc2c1Nc1ccc(N(CC)CC)cc1,AC50,[1],"12.6 µM [falling, partial curve]"
CCOc1ccc(NC(=O)CCCc2nnc3n(C)c(=O)c4sccc4n23)cc1,AC50,[1],"0.1 µM [rising, full curve, poor fit]"
O=C(NCc1ccccc1F)C(=O)NCC(c1ccco1)S(=O)(=O)c1cccs1 (centres undefined),AC50,[1],"3.16 µM [rising, single point]"
Cc1cccc(OCC(=O)Nc2ccccc2C(=O)OCc2cc(=O)n3nc(C)sc3n2)c1,AC50,[1],"10 µM [falling, partial curve]"
Cc1ccc(CCNC(=O)c2cc3c(-c4ccccc4F)nn(C)c3s2)cc1,AC50,[1],"12.6 µM [falling, partial curve]"
CCOC(=O)c1ccc2nc(C)cc(Nc3ccc(OC(C)C)cc3)c2c1,AC50,[1],"25.1 µM [falling, single point]"
Cc1cccc(C(=O)NCCc2nc3ccccc3n2Cc2ccc(Cl)cc2)c1,AC50,[1],"31.6 µM [falling, single point]"
Cc1ccc(OC(C)C(=O)N2CCN(CCc3ccncc3)CC2)cc1C (centres undefined),AC50,[1],"10 µM [falling, partial curve]"
Cc1ccc(NC(=O)c2ccc(Cl)cc2Cl)c(C(=O)c2ccccc2)c1,AC50,[1],"12.6 µM [falling, partial curve]"
Oc1ccccc1Nc1nc(NCC2CCCO2)c2ccccc2n1 (centres undefined),AC50,[2],"15.8 µM [falling, partial curve]"
same,AC50,[3],"10 µM [falling, partial curve]"
Cc1nc2cccnc2n1C1CCN(C(=O)Nc2ccccc2)CC1,AC50,[1],"12.6 µM [rising, partial curve]"
COc1cc(C(=O)Nc2ccc(-n3c(C)nc4ccccc4c3=O)cc2)cc(OC)c1OC,AC50,[1],"6.31 µM [falling, partial curve]"
COCCCn1c(SCC(=O)N2CCc3ccccc32)nnc1-c1ccoc1C,AC50,[1],"10 µM [falling, partial curve]"
Cc1ccc(-c2noc(-c3ccc(NCc4cccnc4)c([N+](=O)[O-])c3)n2)cc1,AC50,[1],"39.8 µM [falling, single point]"
COc1ccc(CNS(=O)(=O)c2cc(Br)cc3c2N(C(C)=O)C(C)C3)cc1 (centres undefined),AC50,[1],"7.94 µM [falling, single point]"
CC(=O)C1=C(c2ccc(Cl)c(Cl)c2)N(C(C)=O)n2c(nnc2-c2ccccc2)S1,AC50,[1],"12.6 µM [falling, partial curve, poor fit]"
O=C(COCc1cc(-c2ccc(F)cc2)on1)Nc1cc(Cl)ccc1O,AC50,[1],"2 µM [falling, full curve]"
Cc1ccccc1-n1nc(CO)c(C(=O)NCC(c2ccccc2)c2ccccc2)n1,AC50,[1],"0.794 µM [falling, partial curve]"
COc1ccc(CCNC(=O)CCCn2c(=O)c3ccccc3n(Cc3ccccc3C#N)c2=O)cc1OC,AC50,[1],"39.8 µM [rising, single point]"
Cc1ncsc1CCSc1nc2ccccc2c(=O)n1C,AC50,[1],"31.6 µM [falling, single point]"
COc1cccc(C2C=C(c3ccccc3)Nc3c(C(=O)Nc4ccccc4)cnn32)c1OC (centres undefined),AC50,[1],"12.6 µM [falling, partial curve]"
CC(=O)Nc1nonc1-c1nnc(SCC(=O)Nc2cc(Cl)ccc2C)n1C,AC50,[1],"1 µM [falling, partial curve]"
COc1cc(OC)cc(C(=O)Nc2ccc(-c3nc4cc(C(C)C)ccc4o3)cc2)c1,AC50,[1],"0.316 µM [falling, full curve]"
Cc1ccc(C)c(N2CCN(S(=O)(=O)c3ccc(-c4coc(C)n4)cc3)CC2)c1,AC50,[1],"31.6 µM [falling, partial curve]"
COc1ccc(-n2cc(-c3ccc4c(c3)OCO4)n(CC(=O)Nc3cccc(C)c3C)c2=O)c(OC)c1,AC50,[1],"7.94 µM [falling, partial curve]"
CCC(c1nnnn1CCc1ccccc1)N(Cc1ccco1)Cc1cc2cccc(C)c2[nH]c1=O (centres undefined),AC50,[1],"10 µM [falling, partial curve]"
CCOC(=O)c1ccc(N2C(=O)c3n[nH]c(-c4cccs4)c3C2c2ccc(CC)cc2)cc1 (centres undefined),AC50,[1],"25.1 µM [falling, single point]"
O=S(=O)(Nc1ccc(F)c(Cl)c1)c1ccc(Br)s1,AC50,[1],"15.8 µM [falling, partial curve]"
Cc1cccc(N2CCN(C(=O)Cn3ncc4c5ccccc5n(C)c4c3=O)CC2C)c1 (centres undefined),AC50,[1],"15.8 µM [falling, partial curve]"
Cc1nc2ccccn2c1-c1csc(NCc2ccco2)n1,AC50,[1],"12.6 µM [falling, partial curve]"
COC(=O)c1cc(NC(=O)c2sc3ccccc3c2Cl)cc(C(=O)OC)c1,AC50,[1],"3.16 µM [falling, full curve]"
CCOc1ccc(-c2nc(CSCC(=O)NCc3ccc(C)cc3)c(C)o2)cc1,AC50,[1],"25.1 µM [falling, single point]"
COC(=O)c1cc2occc2n1CC(=O)Nc1ccc(C)cc1Cl,AC50,[1],"0.0631 µM [rising, full curve, poor fit]"
CC1=CC(C)(C)Nc2ccc(OC(=O)c3cccnc3)cc21,AC50,[1],"5.01 µM [falling, full curve]"
O=C1Nc2ccccc2OC1CC(=O)N1CCN(c2cccc(C(F)(F)F)c2)CC1 (centres undefined),AC50,[1],"15.8 µM [falling, partial curve]"
O=C(NCC(c1cccnc1)N1CCN(Cc2ccccc2)CC1)C(=O)Nc1cccc(Cl)c1 (centres undefined),AC50,[1],"15.8 µM [falling, partial curve]"
NC(=O)CSc1nc2c(oc3ccccc32)c(=O)n1Cc1ccccc1,AC50,[1],"0.0794 µM [falling, partial curve, poor fit]"
Cc1ccccc1C(=O)Nc1c(C(=O)Nc2cccc(F)c2)oc2ccccc12,AC50,[1],"7.94 µM [falling, partial curve, poor fit]"
O=C(NCc1ccc2c(c1)OCO2)c1ccc2c(c1)N(Cc1ccccc1F)C(=O)c1ccccc1S2=O (centres undefined),AC50,[1],"12.6 µM [falling, partial curve, poor fit]"

# A portion of the results above, for reference:
structure (smiles),measurement,setting,value
COc1cc(C(=O)Nc2ccc(-n3c(C)nc4ccccc4c3=O)cc2)cc(OC)c1OC,AC50,[1],"6.31 µM [falling, partial curve]"
COCCCn1c(SCC(=O)N2CCc3ccccc32)nnc1-c1ccoc1C,AC50,[1],"10 µM [falling, partial curve]"
Cc1ccc(-c2noc(-c3ccc(NCc4cccnc4)c([N+](=O)[O-])c3)n2)cc1,AC50,[1],"39.8 µM [falling, single point]"
COc1ccc(CNS(=O)(=O)c2cc(Br)cc3c2N(C(C)=O)C(C)C3)cc1 (centres undefined),AC50,[1],"7.94 µM [falling, single point]"
CC(=O)C1=C(c2ccc(Cl)c(Cl)c2)N(C(C)=O)n2c(nnc2-c2ccccc2)S1,AC50,[1],"12.6 µM [falling, partial curve, poor fit]"
O=C(COCc1cc(-c2ccc(F)cc2)on1)Nc1cc(Cl)ccc1O,AC50,[1],"2 µM [falling, full curve]"
Cc1ccccc1-n1nc(CO)c(C(=O)NCC(c2ccccc2)c2ccccc2)n1,AC50,[1],"0.794 µM [falling, partial curve]"
COc1ccc(CCNC(=O)CCCn2c(=O)c3ccccc3n(Cc3ccccc3C#N)c2=O)cc1OC,AC50,[1],"39.8 µM [rising, single point]"
Cc1ncsc1CCSc1nc2ccccc2c(=O)n1C,AC50,[1],"31.6 µM [falling, single point]"
COc1cccc(C2C=C(c3ccccc3)Nc3c(C(=O)Nc4ccccc4)cnn32)c1OC (centres undefined),AC50,[1],"12.6 µM [falling, partial curve]"
CC(=O)Nc1nonc1-c1nnc(SCC(=O)Nc2cc(Cl)ccc2C)n1C,AC50,[1],"1 µM [falling, partial curve]"
COc1cc(OC)cc(C(=O)Nc2ccc(-c3nc4cc(C(C)C)ccc4o3)cc2)c1,AC50,[1],"0.316 µM [falling, full curve]"
